# PMC9001682
# Sequences of proteins named here, by UniProt entry; tags and fusion partners are left off. Residues count along the entry.
# UniProt P29317, residues 24-976: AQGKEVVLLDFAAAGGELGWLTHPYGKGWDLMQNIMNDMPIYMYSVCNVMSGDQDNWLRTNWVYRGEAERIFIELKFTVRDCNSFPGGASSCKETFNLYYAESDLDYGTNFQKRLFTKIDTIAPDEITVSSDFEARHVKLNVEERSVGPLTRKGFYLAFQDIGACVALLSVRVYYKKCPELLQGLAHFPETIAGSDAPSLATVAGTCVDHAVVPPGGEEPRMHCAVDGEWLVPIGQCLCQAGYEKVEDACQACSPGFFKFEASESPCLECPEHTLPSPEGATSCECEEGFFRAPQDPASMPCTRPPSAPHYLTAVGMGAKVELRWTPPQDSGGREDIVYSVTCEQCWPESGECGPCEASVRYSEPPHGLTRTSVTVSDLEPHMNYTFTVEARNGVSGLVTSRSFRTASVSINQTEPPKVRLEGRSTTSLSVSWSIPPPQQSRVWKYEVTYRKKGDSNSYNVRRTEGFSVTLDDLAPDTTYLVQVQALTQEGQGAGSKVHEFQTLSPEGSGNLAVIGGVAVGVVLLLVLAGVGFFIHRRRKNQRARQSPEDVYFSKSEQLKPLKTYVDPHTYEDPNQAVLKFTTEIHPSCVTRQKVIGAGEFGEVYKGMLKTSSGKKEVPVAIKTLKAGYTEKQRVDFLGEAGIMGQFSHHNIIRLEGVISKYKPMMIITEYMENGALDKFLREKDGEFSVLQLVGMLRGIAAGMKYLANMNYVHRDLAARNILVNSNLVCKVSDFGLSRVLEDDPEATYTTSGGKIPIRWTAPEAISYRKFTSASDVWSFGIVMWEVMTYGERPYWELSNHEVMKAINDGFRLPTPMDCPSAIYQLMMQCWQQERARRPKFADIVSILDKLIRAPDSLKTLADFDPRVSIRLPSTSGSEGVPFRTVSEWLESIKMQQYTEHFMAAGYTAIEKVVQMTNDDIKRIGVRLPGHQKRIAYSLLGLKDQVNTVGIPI
# Molecular target: T1, FLAG-MFSD4A (major facilitator superfamily domain containing 4 A), stably expressed in SUNE1 cells (UniProt Q8N468)
# T1 sequence: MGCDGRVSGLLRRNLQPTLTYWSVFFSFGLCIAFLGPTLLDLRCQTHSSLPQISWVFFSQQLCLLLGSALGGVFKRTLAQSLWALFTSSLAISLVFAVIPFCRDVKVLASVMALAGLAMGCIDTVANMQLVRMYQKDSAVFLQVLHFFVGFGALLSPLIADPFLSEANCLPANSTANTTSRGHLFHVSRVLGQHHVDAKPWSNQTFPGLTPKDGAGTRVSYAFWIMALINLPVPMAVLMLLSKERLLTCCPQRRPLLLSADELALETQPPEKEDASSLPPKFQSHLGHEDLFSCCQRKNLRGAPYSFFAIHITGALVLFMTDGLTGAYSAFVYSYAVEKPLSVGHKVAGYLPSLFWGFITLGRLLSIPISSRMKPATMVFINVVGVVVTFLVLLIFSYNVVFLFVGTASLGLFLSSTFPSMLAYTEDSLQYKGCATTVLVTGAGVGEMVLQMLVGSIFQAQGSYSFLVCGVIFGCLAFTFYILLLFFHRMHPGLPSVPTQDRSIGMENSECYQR
# Assay: affinity purification with mass spectrometry; lysate of SUNE1 cells stably transfected with FLAG-MFSD4A; anti-Flag antibodies or IgG overnight at 4 °C, protein A/G magnetic beads, SDS-PAGE, mass spectrometry
substance,measurement,value
"EPH receptor A2 (EPHA2), endogenous in SUNE1 cells (from UniProt P29317 24-976)",binding,binds

# No constants are given. Whether binding was seen depends on the method and setting. Binding seen in cells or lysates may run through a third protein. These calls come from enrichment with a bait or labelling near it, and not all partners need be listed. Where a sequence is shown, tags or fusion partners need not be part of it.
